Measured values taken from PubChem BioAssay AID651640 (Broad Institute, 2012).
About 6,000 (1.7%) of roughly 350,000 compounds were called active. This list was built around the results that the source calls inconclusive (neither active nor inactive); the mix of calls is not that of the screen. Rule as the data show it: active = CPE inhibition above about 20% (passing the limit was not always enough); inconclusive = no clear call, values can overlap the other calls; tested in BHK-21 cells.

assay: protection of cells from dengue 2 killing – plate reader, single concentration, primary screen (AID 651640); settings: DENV2-infected cells, cytopathic effect rescue, at 9.99 µM, stronger effect = higher value;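 also: 0% = median of neutral control wells and 100% = median of positive control wells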

Compound | CPE inhibition
Cc1csc2nc(CNS(=O)(=O)c3ccc(-c4ccccc4)cc3)cn12 | inconclusive: 21.1%
C[C@@H]1CCCCO[C@@H](CN(C)C(=O)c2ccccc2)[C@H](C)CN([C@@H](C)CO)C(=O)c2cc(NC(=O)C3CCCCC3)ccc2O1 | active: 71.3%
C[C@@H](O)C#Cc1ccc([C@@H]2[C@@H](CO)N3CCCCN(S(=O)(=O)c4ccccc4)C[C@@H]23)cc1 | inactive: -2.03%
NCCSSCCN | inconclusive: 42.5%
CC1(C)CC(=O)N(c2ccc(Cl)cc2Cl)C(=O)C1 | inconclusive: 53.3%
O=C(Cc1cccnc1)N1CC(=O)N2[C@H](CO)[C@H](c3ccc(/C=C/c4ccccc4)cc3)[C@@H]2C1 | inactive: -7.66%
CC(=O)Nc1ccc(S(=O)(=O)NCCCc2ccccc2)cc1 | inconclusive: 51.4%
CCCCOCCCNC(=O)C[C@@H]1C[C@@]2(C(=O)OCC)CCC=C2N(CCC2=CCCCC2)C1=O | inconclusive: 29.8%
Cn1nc(C(=O)NNC(=O)COc2ccccc2)c2ccccc2c1=O | inconclusive: 34.2%
CC(C)CC#Cc1ccc([C@H]2[C@H](CO)N3CCCCN(C(=O)NC4CCCC4)C[C@@H]23)cc1 | inactive: -29.4%
C[C@H](CO)N1C[C@H](C)[C@@H](CN(C)C(=O)CCCN(C)C)OCCCC[C@H](C)Oc2ccc(NC(=O)CCCN(C)C)cc2C1=O | active: 84.8%
CN(C(=O)c1cccc(NC(=O)Cc2ccc(NC(=O)C3CCN(S(=O)(=O)c4cccc([N+](=O)[O-])c4)CC3)cc2)c1)C1CCCC1 | inconclusive: 24.7%
C[C@@H]1CCCCO[C@H](CN(C)S(=O)(=O)c2cccs2)[C@@H](C)CN([C@@H](C)CO)C(=O)c2cc(NC(=O)Nc3cccc4ccccc34)ccc2O1 | inconclusive: 33.3%
CO[C@H]1CN(C)C(=O)c2cc(NS(=O)(=O)c3cccc(F)c3)ccc2OC[C@@H](C)NC[C@@H]1C | inactive: -0.431%
C[C@H](CO)N1C[C@H](C)[C@H](CN(C)Cc2ccc3c(c2)OCO3)Oc2ccc(NC(=O)Cn3cnnn3)cc2C1=O | inactive: -7.01%
COc1cccc(S(=O)(=O)N[C@H]2C=C[C@H](CC(=O)NCc3ccc(Cl)cc3)O[C@@H]2CO)c1 | active: 23.8%
CCCS(=O)(=O)NC(=O)C1(C)CCCN(C(=O)c2cccs2)C1 (centres undefined) | inconclusive: 30.6%
COc1ccc(S(=O)(=O)N2C[C@H]3CON(C)[C@H]3C[C@H]2c2cccc(Br)c2)cc1 | inactive: -6.66%
CN(C)C(/C=C/Nc1ccc([N+](=O)[O-])cc1)=C(C#N)C#N | inconclusive: 25.2%
CCOc1ccccc1NC(=O)C(C)CC (centres undefined) | inactive: -3.84%
O=S(=O)(c1ccc(NCc2ccccc2)cc1)N1CCOCC1 | inconclusive: 71.2%
O=C(CC1CC1)N[C@H]1C[C@@H]2O[C@H](CO)CC[C@@H]2O[C@@H]1CCc1ccc(C#Cc2ccccc2)cc1 | active: 28.2%
COc1ccc(Br)c(C(=O)N2CCN(S(=O)(=O)c3cccs3)CC2)c1 | inactive: -3.17%

Compound | CPE inhibition
CSc1ccc(CN(C)C(=O)c2ccc(S(=O)(=O)Nc3c(C)n(C)n(-c4ccccc4)c3=O)cc2)cc1 | inconclusive: 68.5%
C[C@@H]1CN([C@@H](C)CO)C(=O)CCCn2cc(nn2)CO[C@@H]1CN(C)Cc1cccc(C(F)(F)F)c1 | inactive: -2.08%
C[C@H](CO)N1C[C@H](C)[C@H](CN(C)C(=O)CCC(F)(F)F)OCCCC[C@H](C)Oc2ccc(NC(=O)c3ccccc3)cc2C1=O | active: 21%
COc1ccc(C2/C=C\CN(C(=O)C3CC3)CC(=O)N2Cc2ccc(F)cc2)cc1 (centres undefined) | inconclusive: 39.1%
Cc1ccccc1-c1ccc([C@@H]2[C@H]3CN(C(=O)Nc4ccccc4)CCCCN3[C@H]2CO)cc1 | active: 61.5%
Cc1cccc(-c2ccc([C@H]3[C@H](CO)N4C(=O)CN(C(=O)CN5CCOCC5)C[C@@H]34)cc2)c1 | inactive: 1.31%
CO[C@@H]1CN(C)C(=O)c2ccc(NS(=O)(=O)c3ccc(F)cc3)cc2OC[C@@H](C)N(C(=O)NC(C)C)C[C@H]1C | inconclusive: 37.4%
CCCCN(C(=O)c1cc(-c2ccco2)nc2ccccc12)c1c(N)n(CCCC)c(=O)[nH]c1=O | active: 109%
CCn1c(C)cc(C(=O)COC(=O)CNC(=O)c2ccco2)c1C | active: 60.6%
Cc1noc(C)c1NC(=O)Nc1ccc2c(c1)CC(=O)N([C@@H](C)CO)C[C@@H](C)[C@H](CN(C)Cc1ccc(C(=O)O)cc1)O2 | inconclusive: 34.3%
COc1ccc(-c2ccc([C@H]3[C@@H](CO)N(C(=O)CN(C)C)[C@H]3C#N)cc2)cc1 | inconclusive: 87.1%
C[C@H](CO)N1C[C@H](C)[C@@H](CN(C)Cc2ccc(Oc3ccccc3)cc2)Oc2c(NS(=O)(=O)c3ccc(F)cc3)cccc2C1=O | active: 39.1%
N#Cc1cc(Br)ccc1N=C1CCCN1c1ccccc1 | active: 24%
O=C(C[C@@H]1CC[C@@H](NC(=O)Nc2ccccc2F)[C@H](CO)O1)NCc1ccc(F)cc1 | inconclusive: -9.5%
CC1CCN(S(=O)(=O)N2CCCC(C(=O)NCc3ccc(F)cc3)C2)CC1 (centres undefined) | inconclusive: 25.4%
O=C(NCCc1ccccc1)C(=O)NCC1OCCCN1S(=O)(=O)c1ccc(F)cc1 (centres undefined) | inconclusive: 42.6%
Cc1noc(C)c1NC(=O)Nc1ccc2c(c1)C(=O)N([C@H](C)CO)C[C@@H](C)[C@H](CN(C)C)OCCCC[C@@H](C)O2 | inconclusive: 32.5%
CCOc1cccc(-c2c(C(=O)N/N=C/c3sccc3C)nnn2-c2nonc2N)c1 | inconclusive: 22.4%
COc1ccccc1CNS(=O)(=O)c1cc(C(=O)N(C)Cc2cccnc2)c(Cl)cc1Cl | inconclusive: 23.6%
CCN(CC)C(=O)CN1C(=O)/C(=C/c2ccccc2)SC1=S | inconclusive: 57.8%
Cc1ccc(S(=O)(=O)Nc2ccc3c(c2)CC(=O)N([C@H](C)CO)C[C@@H](C)[C@@H](CN(C)Cc2ccccc2)O3)cc1 | inconclusive: 26.4%
O=C(NN1C(=O)NC2(CCCCC2)C1=O)c1ccc(Cl)c(Cl)c1 | inconclusive: 59.1%
CCOc1ccc(C2C(C(=O)c3ccco3)=C(O)C(=O)N2CCN2CCOCC2)cc1 (centres undefined) | inconclusive: 34.1%

Compound | CPE inhibition
C[C@@H]1CCCCO[C@@H](CN(C)S(=O)(=O)c2cn(C)cn2)[C@H](C)CN([C@@H](C)CO)C(=O)c2cc(NC(=O)c3ccccc3)ccc2O1 | inactive: -3.88%
C[C@H]1CN([C@@H](C)CO)C(=O)c2cc(NC(=O)Cc3ccccc3)ccc2O[C@@H]1CN(C)Cc1ccc(C(=O)O)cc1 | inconclusive: 23.5%
O=C(C[C@H]1CC[C@@H]2[C@H](COC[C@@H](O)CN2Cc2nccs2)O1)NCc1ccc(F)cc1 | inactive: 3.66%
O=C(Nc1cccc(Cl)c1)c1ccccc1 | active: 28.2%
O=S(=O)(O)c1ccc2c(c1)C(C(Cl)(Cl)Cl)OC(C(Cl)(Cl)Cl)O2 (centres undefined) | inconclusive: 77.5%
C/C=C/c1ccc([C@@H]2[C@H](CO)N(C(=O)c3cnccn3)C23CN(C(=O)C2CC2)C3)cc1 | active: 23.6%
C[C@@H]1CN([C@@H](C)CO)C(=O)c2cc(NC(=O)Nc3ccc(F)cc3)ccc2O[C@@H](C)CCCCO[C@@H]1CN(C)C(=O)NC1CCCCC1 | inactive: -7.36%
C[C@@H]1CN([C@@H](C)CO)C(=O)Cc2cc(NC(=O)Nc3ccc(F)cc3)ccc2O[C@@H]1CN(C)C(=O)Nc1ccccc1 | inconclusive: 35.5%
C[C@@H]1CN([C@@H](C)CO)C(=O)c2cc(C3=CCCC3)cnc2O[C@@H]1CN(C)Cc1ccc(C(=O)O)cc1 | active: 24.9%
CCS(=O)(=O)Nc1ccc2c(c1)C(=O)N(C)C[C@H](OC)[C@@H](C)CN[C@@H](C)CO2 | active: 24.7%
O=C(O)CCC(=O)Nc1sc2c(c1C(=O)Nc1ccccc1)CCCCC2 | inactive: -4.24%
O=C(Nc1ccc2ccccc2n1)Nc1ccccc1F | inconclusive: 21.7%
N#C[C@@H]1[C@H](c2ccc(-c3cccc(F)c3)cc2)[C@H](CO)N1C(=O)CN1CCOCC1 | inconclusive: 40.9%
CCC(NS(=O)(=O)c1ccc(C)cc1)C(=O)N1CCN(c2ccccn2)CC1 (centres undefined) | inconclusive: 44.2%
C[C@H]1CCCCO[C@H](CN(C)Cc2ccccc2)[C@@H](C)CN([C@@H](C)CO)C(=O)c2cc(NS(=O)(=O)c3ccc(F)cc3)ccc2O1 | active: 28.5%
O=C(C[C@H]1C[C@@H]2c3cc(NC(=O)NC4CCCC4)ccc3O[C@@H]2[C@@H](CO)O1)NC1CCCCC1 | inconclusive: 41.9%
O=C(CSc1cnc2ccccc2n1)c1ccc(F)cc1 | active: 32.6%
CC(=O)NC(CC(=O)NNC(=O)C(C)Oc1ccccc1F)c1ccccc1 (centres undefined) | inconclusive: 26.9%
COc1ccc(S(=O)(=O)Nc2ccc3c(c2)CC(=O)N([C@@H](C)CO)C[C@@H](C)[C@H](CN(C)C(=O)NC(C)C)O3)cc1 | active: 35.4%
COc1ccc(NC(=O)Nc2ccc3c(c2)C(=O)N([C@H](C)CO)C[C@H](C)[C@@H](CN(C)C(=O)CCC(F)(F)F)OCCCC[C@H](C)O3)cc1 | inconclusive: 76.5%
Cc1ccc(S(=O)(=O)Nc2ccc3c(c2)CC(=O)N([C@H](C)CO)C[C@H](C)[C@H](CN(C)Cc2ccc(Oc4ccccc4)cc2)O3)cc1 | active: 49.8%
O=c1cc(-c2ccc([N+](=O)[O-])cc2)c2ccc(O)cc2o1 | inactive: -5.87%
CC(=O)N1CCc2cc([N+](=O)[O-])ccc21 | inconclusive: 34%

Looked up above:
C[C@@H]1CCCCO[C@@H](CN(C)S(=O)(=O)c2cn(C)cn2)[C@H](C)CN([C@@H](C)CO)C(=O)c2cc(NC(=O)c3ccccc3)ccc2O1 | CPE inhibition: inactive: -3.88%
O=C(Nc1cccc(Cl)c1)c1ccccc1 | CPE inhibition: active: 28.2%
